Data as given in PubChem BioAssay AID743454 (Peter MacCallum Cancer Centre, 2014)
Purpose: 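Genes whose loss kills vorinostat-resistant colon cancer cells under vorinostat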 (primary screen). Cells: human HCT116-VR colon cancer cells, selected for vorinostat resistance. Reagent: siRNA pool against human genes, 40 nM siRNA pool. Timing: vorinostat for 24 h, read-out about 72 h after transfection. Conditions: vorinostat at 2.5 µM final. Read-out: 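Cell viability by CellTiter-Fluor and caspase 3/7 activity by luminescence, each scaled to mock wells per plate, duplicates averaged, then robust z-scored over all plates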. Scale: viability robust z-score: higher = more viable cells than screen typical; caspase robust z-score: higher = more caspase 3/7 activity than screen typical. Active means: 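a knock-down is a hit when classed RV1 or RV2 for lowered viability, or CA1 or CA2 for caspase activation; those lethal without drug were dropped; hits were retested singly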.
Shown is one part, drawn at random, of about 18,000 deposited reagents. 450 of all reagents (2.5%) were called active. 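Single biological run; no consistent viability z cut-off exists, so the class columns, not z-scores, define the calls.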

For HUS1B (HUS1 checkpoint clamp component B), what was measured?
viability hit class: no change; caspase hit class: no change; viability robust z-score: 0.64; caspase robust z-score: -0.86; call: inactive

With SPRING1 (SREBF pathway regulator in golgi 1), how do the results read?
viability hit class: no change; caspase hit class: no change; viability robust z-score: -0.15; caspase robust z-score: -0.88; call: inactive

How did the screen score OR10H3 (olfactory receptor family 10 subfamily H member 3)?
viability hit class: no change; caspase hit class: no change; viability robust z-score: 0.71; caspase robust z-score: 0.2; call: inactive

With CIMAP2 (ciliary microtubule associated protein 2), what does the deposit list?
viability hit class: no change; caspase hit class: no change; viability robust z-score: -0.18; caspase robust z-score: 0.68; call: inactive

For H2BC9 (H2B clustered histone 9), what does the deposit list?
viability hit class: no change; caspase hit class: no change; viability robust z-score: -0.15; caspase robust z-score: 1.28; call: inactive

For ISG15 (ISG15 ubiquitin like modifier), what was measured?
viability hit class: no change; caspase hit class: no change; viability robust z-score: -0.92; caspase robust z-score: -0.7; call: inactive

What is on record for PCDHAC1 (protocadherin alpha subfamily C, 1)?
viability hit class: no change; caspase hit class: no change; viability robust z-score: -0.29; caspase robust z-score: -0.68; call: inactive

What did the screen give for CLEC4C (C-type lectin domain family 4 member C)?
viability hit class: no change; caspase hit class: no change; viability robust z-score: 0.38; caspase robust z-score: 0.1; call: inactive

With SERINC4 (serine incorporator 4), how do the results read?
viability hit class: no change; caspase hit class: no change; viability robust z-score: -1.21; caspase robust z-score: -1.23; call: inactive

Which result is listed for TMEM170A (transmembrane protein 170A)?
viability hit class: no change; caspase hit class: no change; viability robust z-score: 2.25; caspase robust z-score: -0.76; call: inactive

Which result is listed for TOR1A (torsin family 1 member A)?
viability hit class: no change; caspase hit class: no change; viability robust z-score: -1.29; caspase robust z-score: 1.14; call: inactive

What did the screen give for GLRX5 (glutaredoxin 5)?
viability hit class: no change; caspase hit class: no change; viability robust z-score: 0.64; caspase robust z-score: -0.68; call: inactive

For TAX1BP1 (Tax1 binding protein 1), what was measured?
viability hit class: no change; caspase hit class: no change; viability robust z-score: 0.18; caspase robust z-score: -1.31; call: inactive

What did the screen give for PCDHGB2 (protocadherin gamma subfamily B, 2)?
viability hit class: no change; caspase hit class: no change; viability robust z-score: -0.24; caspase robust z-score: -0.72; call: inactive

What is on record for KIF14 (kinesin family member 14)?
viability hit class: no change; caspase hit class: no change; viability robust z-score: -1.14; caspase robust z-score: 2.06; call: inactive

What is on record for ADGRG5 (adhesion G protein-coupled receptor G5)?
viability hit class: no change; caspase hit class: no change; viability robust z-score: -0.38; caspase robust z-score: -0.38; call: inactive

What is on record for SIRT4 (sirtuin 4)?
viability hit class: no change; caspase hit class: no change; viability robust z-score: 1.7; caspase robust z-score: -0.14; call: inactive

With CCDC68 (coiled-coil domain containing 68), how do the results read?
viability hit class: no change; caspase hit class: no change; viability robust z-score: 2.06; caspase robust z-score: -0.53; call: inactive

Which result is listed for TIGD4 (tigger transposable element derived 4)?
viability hit class: no change; caspase hit class: no change; viability robust z-score: -0.6; caspase robust z-score: -0.79; call: inactive

For LIN28A (lin-28 RNA binding posttranscriptional regulator A), what does the deposit list?
viability hit class: no change; caspase hit class: no change; viability robust z-score: 0.55; caspase robust z-score: 0.52; call: inactive

For POMP (proteasome maturation protein), what does the deposit list?
viability hit class: no change; caspase hit class: no change; viability robust z-score: -3.84; caspase robust z-score: 2.73; call: inactive

Reformatted: entries from further up
gene knocked down,viability hit class,caspase hit class,viability robust z-score,caspase robust z-score,call
HUS1B (HUS1 checkpoint clamp component B),no change,no change,0.64,-0.86,inactive
SPRING1 (SREBF pathway regulator in golgi 1),no change,no change,-0.15,-0.88,inactive
